Results as given in article doi:10.1101/2025.05.01.651783.
No constants are given. Whether binding was seen depends on the method and setting. In cells and extracts the contact can be indirect. Some results given as binding are weak or reduced against the parent protein; the word gives no strength.

By UniProt entry, the sequences of proteins in these tests, tags left out.
UniProt Q04206: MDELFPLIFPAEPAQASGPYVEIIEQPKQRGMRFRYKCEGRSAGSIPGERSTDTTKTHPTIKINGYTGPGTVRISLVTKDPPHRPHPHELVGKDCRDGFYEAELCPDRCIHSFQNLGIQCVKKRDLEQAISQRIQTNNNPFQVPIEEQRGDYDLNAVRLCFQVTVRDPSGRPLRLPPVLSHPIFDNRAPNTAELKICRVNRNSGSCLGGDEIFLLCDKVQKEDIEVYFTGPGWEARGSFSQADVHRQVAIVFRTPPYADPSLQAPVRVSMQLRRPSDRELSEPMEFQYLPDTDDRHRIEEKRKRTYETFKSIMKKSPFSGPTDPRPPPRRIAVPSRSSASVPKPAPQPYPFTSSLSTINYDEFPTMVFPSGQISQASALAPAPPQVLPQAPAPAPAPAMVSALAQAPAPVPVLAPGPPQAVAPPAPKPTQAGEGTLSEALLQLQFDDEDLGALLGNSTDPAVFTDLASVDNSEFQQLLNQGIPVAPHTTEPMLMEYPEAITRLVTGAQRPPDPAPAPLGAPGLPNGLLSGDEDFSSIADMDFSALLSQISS

Columns and labels:
[1] = target: Argonaute 1 (AGO1) (human (endogenous in HAECs and HUVECs)) (UniProt Q9UL18); test: proximity ligation
[2] = target: Argonaute 1 (AGO1) (human (endogenous in HAECs and HUVECs)) (UniProt Q9UL18); test: co-IP

binding [1]: binds | binding [2]: binds
Substance: NF-κB p65 (RELA) (from UniProt Q04206 1-551)
